In PMC12040169 (PLOS Biology, 2025):
Some of the results follow.

Test system: T1, CTL2-GFP (C. trachomatis L2/434/Bu, GFP-expressing)
T1 construct: L2/434/Bu, GFP-expressing
Design: species or system HeLa; Intracellular C. trachomatis growth in HeLa cells, bulk GFP fluorescence relative to DMSO
Conditions: bulk GFP, single well; 28.5 h, 10 µM; inhibitor

SMILES	% of control remaining
CC(=O)C12c3ccccc3C(c3ccccc31)C1C(=O)N(c3ccc(Cl)c(C(=O)O)c3)C(=O)C12 (stereo not drawn) [CBK263021]	111.649%
COc1cccc(CN2CCN(CC(=O)N3CCCC3)[C@@H](C)C2)c1 [CBK286171]	142.232%
NC(=O)c1ccc(Nc2cc(N)ncn2)cc1 [CBK017969]	110.641%
CN1CCN(NC(=O)c2cc(-c3cccnc3)nc3ccc(Cl)cc23)CC1 [CBK267729]	126.585%
O=C(NC(=S)Nc1ccc2oc(-c3ccncc3)nc2c1)c1ccccc1[N+](=O)[O-] [CBK264106]	100%
Cn1ncc(N2CCN(C(=O)CCN3CCCCCC3=O)CC2)cc1=O [CBK306508]	115.104%
c1cncc(COc2nccnc2OC2CCN(CCOc3cccnc3)CC2)c1 [CBK083181]	132.832%
C(#Cc1ccc(-c2nc(-c3ccc(Sc4ccccc4)cc3)c(-c3ccc(Sc4ccccc4)cc3)[nH]2)cc1)c1ccccc1 [CBK261954]	110.367%
CCC12CN3CCN(CC(C3)/C1=N\O)C2 [CBK263022]	116.382%
CCN(CC1CCN(c2ccccn2)CC1)C(=O)C1(C#N)CCCC1 [CBK304096]	152.304%
CC(C)(N)CN(Cc1ccccc1)C(=O)/C=C/c1ccccc1 [CBK013891T]	98.0806%
O=S(=O)(Nc1ccc(-c2nnn[nH]2)cc1)c1c(Cl)cc(C(F)(F)F)cc1Cl [CBK155570]	105.612%
CC(C)Nc1nc2cc(Cl)c(Cl)cc2nc1SCCC(=O)O [CBK107860]	111.873%
CN(C)CCNC1CS(=O)(=O)CC1O (stereo not drawn) [CBK059025]	125.534%
O=C(NCc1ccncc1)c1nn(-c2ncccn2)c2ccccc12 [CBK048498]	100%
COc1nccc(N2CCC3(CCCN(CC4CCC4)C3=O)C2)c1C#N (stereo not drawn) [CBK306861]	125.329%
Cc1cccc(CNC(=O)CC2CCN(Cc3cccc(C(F)(F)F)c3)CC2)n1 [CBK285950]	115.886%
NS(=O)(=O)c1ccc(NC(=O)CN2C(=O)S/C(=C\C=C\c3ccccc3)C2=O)cc1 [CBK264835]	119.344%
CS(=O)(=O)c1ccc(-n2ncc(-c3cccc(C(F)(F)F)c3)n2)cc1 [CBK112672]	97.1627%
Cc1cccc(NS(=O)(=O)c2ccc(OCC(=O)Nc3ccc4c(c3)OCCO4)cc2)c1 [CBK268068]	85.5567%
Cc1cnn(CC(=O)N2CC[C@H]3NC(=O)c4ccccc4OCCCCC[C@H]3C2)c1 [CBK292010]	93.0243%
O=C(O)CCSCc1ccc([N+](=O)[O-])cc1 [CBK262359]	109.037%
Cc1cccc(C)c1OCc1nnc(SCc2ccc([N+](=O)[O-])cc2)n1C [CBK269737]	101.134%
CCCCN(CCCC)S(=O)(=O)c1nc2nc(C)cc(C)n2n1 [CBK022076]	143.871%
O=C(NCCN1CCN(C(=O)Nc2ccccc2)CC1)C1CCCC1 [CBK305915]	125.552%
O=C(CC1(O)C(=O)N(Cc2ccc3c(c2)OCO3)c2ccccc21)c1ccccn1 (stereo not drawn) [CBK269725]	131.953%

A portion from the list above:
SMILES	% of control remaining
COc1cccc(CN2CCN(CC(=O)N3CCCC3)[C@@H](C)C2)c1 [CBK286171]	142.232%
NC(=O)c1ccc(Nc2cc(N)ncn2)cc1 [CBK017969]	110.641%
CN1CCN(NC(=O)c2cc(-c3cccnc3)nc3ccc(Cl)cc23)CC1 [CBK267729]	126.585%
O=C(NC(=S)Nc1ccc2oc(-c3ccncc3)nc2c1)c1ccccc1[N+](=O)[O-] [CBK264106]	100%
Cn1ncc(N2CCN(C(=O)CCN3CCCCCC3=O)CC2)cc1=O [CBK306508]	115.104%

Later entries:

SMILES	% of control remaining
Cc1nc2sc3c(c2c2nc(-c4ccncc4)nn12)CCCC3 [CBK288541]	133.361%
Fc1ccc(OCCCN2CCC3(CC2)OCCc2c3[nH]c3ccccc23)cc1 [CBK107736]	127.598%
NC(=S)Nn1c(CCC(=O)O)ccc1-c1cccs1 [CBK265952]	123.93%
O=C(CNC(=O)c1cccc(Cl)c1)N/N=C/C=C/c1ccccc1 [CBK261947]	100.657%
c1csc(-c2nc3[nH]c4ccccc4n3n2)c1 [CBK264118]	106.721%
Cn1nc(-c2ccc(S(=O)(=O)NCCN3CCNC3=O)s2)cc1C(F)(F)F [CBK062610]	116.544%
O=C(Nc1ccccc1C(=O)c1ccccc1)c1ccccn1 [CBK288150]	114.049%
O=C(NC(c1ccc2c(c1)CCO2)C1CC(O)C1)c1cccc(=O)[nH]1 (stereo not drawn) [CBK307463]	97.8097%
CC1CCCN(c2nc3cc(C(=O)O)sc3[nH]2)C1 (stereo not drawn) [CBK287159]	118.065%
Cn1nccc1C(=O)N1CCCC(c2cc3ncccc3[nH]2)C1 (stereo not drawn) [CBK283413]	132.816%
Cc1cc(-c2nc3ncccc3o2)ccc1NC(=O)c1ccc2c(c1)OCCO2 [CBK270104]	116.569%
O=[N+]([O-])c1ccc(NCCCNS(=O)(=O)c2ccc(Cl)cc2)c(Cl)c1 [CBK262543]	104.667%
CC(CN1CCCCC1)OC(=O)C(c1ccccc1)c1ccccc1 (stereo not drawn) [CBK265237C]	80.4856%
CN(C)c1cccc(Nc2cc(-c3ccc(CCC(=O)O)cc3)ncn2)c1 [CBK091010]	167.283%
Cc1c(C(N)=O)sc2ncn(CC(=O)NCCc3ccccc3)c(=O)c12 [CBK268514]	152.789%
CC1CCc2nc(NC(=O)c3ccccc3)sc2C1 (stereo not drawn) [CBK287298]	113.459%
COc1ccc(CCNC(=S)N2CCN(S(C)(=O)=O)CC2)cc1OC [CBK266917]	108.641%
CCC(=O)N1CCC(c2cc(-c3cccc(F)c3)n(C)n2)CC1 [CBK282096]	106.924%
CSc1nc(NN2C(=O)c3ccccc3C2=O)c2c3c(sc2n1)COC(C)(C)C3 [CBK268758]	115.797%
Cc1nnc(CN(C)C2CCN(CCc3cccs3)C2)n1C (stereo not drawn) [CBK305126]	149.016%
O=C(NCc1cccnc1)N1CCCCC1CO (stereo not drawn) [CBK156169]	88.8486%
Cc1nnc2nc(-c3ccc(Cl)cc3Cl)[nH]n12 [CBK027731]	90.8581%
O=C(c1c[nH]c(-c2ncn[nH]2)c1)c1ccc(Cl)cc1Cl [CBK008334]	112.37%
Cc1ccccc1-n1ccn(C(=O)CCCOc2ccc(Cl)cc2)c1=O [CBK106573]	114.441%
Cc1ccnc(NCn2nnc3ccccc32)c1 [CBK261116]	108.518%
COc1ccc(Cn2nc(NC(=O)c3cnc4ccccc4n3)c3ccccc32)cc1 [CBK048343]	113.398%

SMILES	% of control remaining
CC1(C(=O)O)COC(c2ccc([N+](=O)[O-])cc2)OC1 (stereo not drawn) [CBK286737]	118.681%
CC(Nc1n[nH]c(=O)[nH]c1=O)C(=O)N/N=C/c1ccccc1O (stereo not drawn) [CBK263526]	100%
O=C(c1ccc(F)cc1)C1CCN(Cc2cccnc2)CC1 [CBK149118]	108.045%
COc1ccc(Cl)c(Cn2c(NCc3ccccn3)nc3c2c(=O)n(C)c(=O)n3C)c1 [CBK268965]	119.935%
Cc1ncccc1C(=O)N1CCC2(CCc3ccccc3C(=O)N2)C1 (stereo not drawn) [CBK283338]	93.6021%
CN(C)C(=O)c1ccc(-c2cnc3[nH]c(=O)n(CCCN4CCOCC4)c3n2)cc1 [CBK064828]	87.5718%
COc1cc(-c2cncc(NCc3ccco3)n2)cc(OC)c1OC [CBK065259]	117.28%
CCCN1CCC(NCC(C)(C)CN(C)C)CC1 [CBK261934]	110.509%
O=C(NC1CCCCC1)NC1CCN(Cc2nnnn2Cc2ccco2)CC1 [CBK085007]	98.8602%
Cc1cnccc1N1CCN(C(=O)CCCOc2ccccc2)CC1 [CBK304677]	129.316%
Cc1c(C(=O)O)sc2nc(SCC(=O)Nc3ccc(OCc4ccccc4)cc3)[nH]c(=O)c12 [CBK296992]	169.206%
C=CCN1C(=O)CC2(C1=O)C(=O)N(CC)c1ccc(F)cc12 (stereo not drawn) [CBK075316]	95.2301%
Cc1cc2n(n1)[C@@H](C(F)F)C[C@@H](C1CCCN(C(=O)C3CC3)C1)N2 (stereo partly drawn) [CBK284723]	92.2049%
CCCC(=O)N1CCCC1c1cc2n(n1)[C@@H](C(F)(F)F)C[C@@H](C)N2 (stereo partly drawn) [CBK283003]	125.646%
COc1ccc(OC)c([C@@H]2CN(Cc3ccccc3)C[C@H]2NC(=O)c2ccco2)c1 [CBK286479]	125.058%
NC(=O)C1CCN(c2ccc(-c3noc([C@@H]4CCCN4Cc4cccnc4)n3)cn2)CC1 [CBK288882]	129.813%
O=C1CC(C(=O)Nc2ccc(Cl)cc2)c2c(nc(SCc3ccccc3F)[nH]c2=O)N1 (stereo not drawn) [CBK294437]	145.53%
Cc1cc(C(=O)N2Cc3ccccc3C2)n[nH]1 [CBK200328]	165.337%
Cc1nnc([C@H]2CCN(Cc3ccc(F)cc3)C2)o1 [CBK289391]	131.128%
O=C(COc1ccc(Cl)cc1)NNC(=O)c1cccnc1 [CBK261044]	111.649%
COC(=O)[C@@H]1Cc2ncn(Cc3ccc(Cl)cc3)c2CN1C(=O)c1ccc(C#N)cc1 [CBK288984]	112.836%
Nc1nc(N)c2nc(C3OCCO3)cnc2n1 [CBK027115]	86.2075%
Cn1nc2c(cc1=O)CN(C(=O)c1cnc(C(C)(C)C)nc1)CC2 [CBK304293]	121.915%
O=C(Nc1ccc2c(c1)C(=O)NC2=O)c1ccccc1 [CBK270384]	136.655%
O=C(Cn1cnnn1)NCc1ccccc1 [CBK200255]	124.309%
CC(=O)c1ccc2c(c1)[C@@H]1C=CC[C@@H]1[C@H](C(=O)O)N2 [CBK287093]	132.136%
